Test results from paper PMC5868998.
These are yes or no findings as the source states them, for the method shown. For part of these data: In cells and extracts the contact can be indirect. Where a sequence is shown, tags or fusion partners need not be part of it.

T1: Recombinant Drosophila Pacman (Pcm) protein (residues 1-1141) with C-terminal FLAG tag (Drosophila) (UniProt Q9VWI1)
T1 sequence: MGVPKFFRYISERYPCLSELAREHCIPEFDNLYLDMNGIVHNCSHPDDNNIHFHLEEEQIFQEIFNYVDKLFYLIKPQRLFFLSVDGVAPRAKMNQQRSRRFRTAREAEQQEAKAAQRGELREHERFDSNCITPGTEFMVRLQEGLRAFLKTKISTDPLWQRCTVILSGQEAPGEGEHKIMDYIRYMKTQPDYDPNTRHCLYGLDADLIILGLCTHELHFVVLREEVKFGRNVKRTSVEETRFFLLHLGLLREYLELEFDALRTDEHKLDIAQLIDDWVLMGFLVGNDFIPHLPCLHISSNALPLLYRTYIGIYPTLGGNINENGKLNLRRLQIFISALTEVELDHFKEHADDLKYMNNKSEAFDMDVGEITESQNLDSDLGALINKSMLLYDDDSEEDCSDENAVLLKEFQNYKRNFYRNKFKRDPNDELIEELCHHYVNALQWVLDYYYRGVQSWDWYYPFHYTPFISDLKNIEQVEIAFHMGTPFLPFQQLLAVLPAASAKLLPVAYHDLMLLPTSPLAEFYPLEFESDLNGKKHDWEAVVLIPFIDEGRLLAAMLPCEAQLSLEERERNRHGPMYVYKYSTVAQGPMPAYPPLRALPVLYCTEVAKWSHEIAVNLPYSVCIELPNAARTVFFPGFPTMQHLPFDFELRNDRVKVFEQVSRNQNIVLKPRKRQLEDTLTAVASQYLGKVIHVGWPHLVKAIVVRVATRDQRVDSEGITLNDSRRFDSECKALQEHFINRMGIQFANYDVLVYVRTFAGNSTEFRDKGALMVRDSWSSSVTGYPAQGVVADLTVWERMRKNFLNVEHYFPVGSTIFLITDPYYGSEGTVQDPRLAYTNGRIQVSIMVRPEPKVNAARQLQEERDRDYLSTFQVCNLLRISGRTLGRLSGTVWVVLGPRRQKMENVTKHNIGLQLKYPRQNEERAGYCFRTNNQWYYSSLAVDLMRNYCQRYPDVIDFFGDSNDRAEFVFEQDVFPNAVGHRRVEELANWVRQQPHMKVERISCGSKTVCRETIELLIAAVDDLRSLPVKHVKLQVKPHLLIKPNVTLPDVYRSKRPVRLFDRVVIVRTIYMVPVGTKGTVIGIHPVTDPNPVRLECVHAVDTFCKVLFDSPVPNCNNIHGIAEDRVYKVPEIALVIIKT

B1: Recombinant Drosophila Pacman (Pcm) protein (residues 1-1141) with C-terminal FLAG tag (domain or fragment, UniProt Q9VWI1 1-1141)
chain: T1 sequence

Assays:
[1] = target: T1, Recombinant Drosophila Pacman (Pcm) protein (residues 1-1141) with C-terminal FLAG tag (Drosophila); assay: SEC; Sephacryl S-200 HR column (5 mm x 185 mm), 10 mM Tris-HCl pH 8.0, 150 mM NaCl, 0.2 mM EDTA, 1 mM DTT; input 50 µg each of Pcm and Mbf1 in 30 µl; both purified
[2] = target: T1, Recombinant Drosophila Pacman (Pcm) protein (residues 1-1141) with C-terminal FLAG tag (Drosophila); assay: co-IP; purified Pcm (5 µg) and Mbf1 (5 µg) mixed in 200 µl TBST, added to anti-FLAG M2, anti-Mbf1 or normal rabbit IgG on Dynabeads Protein G; 3 h at room temperature; western blot of eluates; both purified
[3] = target: Multiprotein bridging factor 1 (Mbf1), recombinant Drosophila (Drosophila); assay: as above

Molecule | binding [1] | binding [2] | binding [3]
Multiprotein bridging factor 1 (Mbf1), recombinant Drosophila | no binding (tested: 50 µg each of Pcm and Mbf1 in 30 µl) | no binding (tested: 5 µg each in 200 µl TBST) | –
B1 | – | – | no binding (tested: 5 µg each in 200 µl TBST)
